# Test results from PubChem BioAssay AID504444 (National Center for Advancing Translational Sciences (NCATS), 2011).
# Among all 360,000 compounds or so, about 7,500 (2.1%) were called active. The shares of active, inactive and inconclusive entries below differ from those in the screen. The call rests on the fitted dose curve; in most records, active means well fitted inhibition curve with a large enough effect; inconclusive means small, poorly fitted or top-dose-only effect, or effect the other way; inactive means flat fitted curve, though single readings scatter. Potencies beside an inconclusive call are fits to weak or partial responses and may not hold up.
# Assay: Nrf2 qHTS screen for inhibitors; further: nearly all actives have a fitted effect of over 60% in size
# Settings: A549 ARE-Fluc reporter, luciferase luminescence, 18-24 h; activity change, negative = inhibition: at 46 µM (top of the series)
# In short: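 Cells were seeded and rested 2 h, then exposed to compounds for 18-24 h. CellTiter-Fluor was read first as a viability measure. BugLite was added 15 min before the final luminescent read of ARE-luciferase activity in A549 cells.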
# On the % scale 0 is the no-effect control and ±100 the full control effect; potency means the concentration at half of the fitted maximal effect.
SMILES,"activity change, negative = inhibition",Potency
COC(=O)Cn1ncc2c3ccccc3n(C)c2c1=O,inactive: 4.03%,–
Cc1ccc(NCCN(C)C)c2c(=O)c3cc(O)ccc3sc12,–,"inconclusive: 0.0517 µM [falling, full curve, poor fit]"
COc1ccc(NC(=S)Nc2cccc3ccccc23)cc1OC,–,"inconclusive: 1.03 µM [activator, full curve, poor fit]"
O=C(Nc1cccnc1Cl)c1noc2c1CCc1ccccc1-2,–,"inconclusive: 29.1 µM [activator, single point]"
COc1ccc(CNC(=O)CCS(=O)(=O)c2cccc3nonc23)cc1,inactive: 9.52%,–
CCc1cccc(NC(=O)C2CCN(S(=O)(=O)c3ccc4c(c3)CC(C)N4C(C)=O)CC2)c1 (stereo not drawn),–,active: 7.31 µM
O=S(=O)(c1ccccc1Br)N(Cc1ccccc1)Cc1ccco1,inactive: -25.5%,–
COc1cc(/C=C/C(=O)N2C(=O)c3cccc(N)c3C2=O)cc(OC)c1OC,inactive: 2.35%,–
CCCc1nc2ccc(NC(=O)c3cccs3)cc2c(=O)n1Cc1ccccc1Cl,–,"inconclusive: 5.8 µM [falling, partial curve]"
COC(=O)C1=C[C@@H](C(=O)OC)[C@@H]2C3=C(C(=O)C2(C)C)[C@H](C)n2c(=O)n(-c4ccccc4)c(=O)n2[C@@H]3C1,–,inactive
Cc1cccc(C(=O)Nc2cccc3c2CCCC3)c1,inactive: -1.47%,–
Cc1ccc2c(CC(=O)N(Cc3ccc(N(C)C)cc3)Cc3ccco3)coc2c1C,–,active: 23.1 µM
O=C(CN(Cc1ccco1)C(=O)c1cc(=O)[nH]c2ccccc12)Nc1ccccc1C(F)(F)F,–,"inconclusive: 2.31 µM [activator, partial curve, poor fit]"
COc1ccccc1C(=O)N/C(=C\c1cn(S(=O)(=O)N(C)C)c2ccccc12)C(=O)N1CCCC1,–,"inconclusive: 29.1 µM [falling, partial curve, poor fit]"
Cc1ccc2oc(-c3ccc(C)c(NC(=O)/C=C/c4ccco4)c3)nc2c1,–,"inconclusive: 14.6 µM [activator, partial curve]"
N#Cc1ccccc1CSc1nnc(-c2ccc(Br)cc2)o1,–,"inconclusive: 2.06 µM [activator, full curve]"
CCOC(=O)N/N=C/c1c(C)nn(-c2ccccc2Cl)c1Cl,–,"inconclusive: 3.26 µM [activator, full curve, poor fit]"
CCc1nnc(NC(=O)c2cccc(NC(=O)C(C)C)c2)s1,–,"inconclusive: 16.4 µM [activator, partial curve]"
CCc1cccc(CC)c1NC(=O)CNCc1cccs1,inactive: -14.7%,–
O=C1CSC2(C(=O)N(Cc3cccc(C(F)(F)F)c3)c3ccccc32)N1c1ccc(F)c(F)c1 (stereo not drawn),–,"inconclusive: 29.1 µM [falling, single point]"
COc1cc2ncnc(NCCc3ccccc3)c2cc1OC,–,active: 23.1 µM
CCCN(CC(=O)Nc1ccccc1C)C(=O)c1ccc(N2CCCCC2)c([N+](=O)[O-])c1,–,"inconclusive: 10.3 µM [falling, partial curve, poor fit]"
CCCNC(=O)c1ccc(-c2nn(C)c(=O)c3ccccc23)cc1,–,"inconclusive: 20.6 µM [falling, single point]"

SMILES,"activity change, negative = inhibition",Potency
CC(=O)Nc1cccc(S(=O)(=O)Nc2ccc(C)c(C)c2)c1,–,"inconclusive: 9.2 µM [falling, partial curve, poor fit]"
Cc1cc(=O)[nH]c(N/N=C/c2ccc(-c3ccc(F)cc3)o2)n1,–,"inconclusive: 20.6 µM [activator, partial curve]"
Cn1cccc1CC(=O)NNC(=S)NC(=O)c1ccccc1Br,–,"inconclusive: 32.6 µM [falling, single point]"
Cc1nnc(NC(=O)c2ccc(S(=O)(=O)N3CCc4ccccc4C3)cc2)o1,–,"inconclusive: 29.1 µM [falling, single point]"
CN(C)c1ccc(/C=C(\C#N)C(=O)OCC(=O)N(C)C2CCS(=O)(=O)C2)cc1 (stereo not drawn),inactive: 5.03%,–
COc1ccc(-c2cnc3c(c2)CCC3(C#N)C#N)cc1,inactive: 14.6%,–
C[C@@H](NC(=O)[C@@H]1Cc2ccccc2CN1)C(=O)NC1CCCC1,–,"inconclusive: 3.66 µM [falling, partial curve, poor fit]"
Cc1ccc(NC(=O)CN(C)S(=O)(=O)c2cccc3nsnc23)cc1Cl,–,active: 18.4 µM
COC(=O)[C@]1(CC(C)C)N[C@H](c2ccc(SC3CCCCC3)c(OC)c2)[C@@H]2C(=O)N(C)C(=O)[C@@H]21,–,"inconclusive: 16.4 µM [falling, single point]"
O=C1OC(Oc2ccc(Br)cc2)(c2ccccc2)c2ccccc21 (stereo not drawn),inactive: -9.2%,–
NS(=O)(=O)c1ccc(N/N=C/c2ccc(O)cc2O)c([N+](=O)[O-])c1,–,"inconclusive: 11.6 µM [falling, partial curve, poor fit]"
COC(=O)CSc1nnc(-c2sc3ccccc3c2Cl)o1,–,active: 16.4 µM
Cc1ccc(-c2noc(CNC(=O)c3ccc(C)c(Cl)c3)n2)cc1,–,"inconclusive: 23.1 µM [falling, single point]"
Cc1cccc(C(=O)N(CC(=O)Nc2sc(C)c(C)c2C(N)=O)C2CCCC2)c1,–,"inconclusive: 29.1 µM [falling, single point]"
Cc1c(CCC(=O)N2CCC(C(=O)O)(c3ccccc3)CC2)c(=O)oc2cc3oc4c(c3cc12)CCCC4,–,"inconclusive: 5.8 µM [falling, partial curve]"
NC(=O)N1c2ccccc2C=Cc2ccccc21,–,"inconclusive: 32.6 µM [activator, single point]"
COC(=O)NNC(=O)C(C)Oc1ccc(Cl)cc1Cl (stereo not drawn),–,"inconclusive: 0.13 µM [falling, full curve, poor fit]"
CC(C)CC1C(C#N)=C(N)OC2=C1C(=O)CC(c1ccccc1)C2 (stereo not drawn),–,"inconclusive: 9.2 µM [falling, partial curve, poor fit]"
CCCOc1ccc(C(=O)CCN2CCCCC2)cc1,inactive: 1.41%,–
CC(CNC(=S)Nc1cc(F)cc(F)c1)CSc1ccc(Cl)cc1 (stereo not drawn),–,"inconclusive: 29.1 µM [falling, single point]"
Cc1ccccc1CN(C)Cc1cc(=O)oc2c(C)c(C)ccc12,–,"inconclusive: 20.6 µM [falling, single point]"
O=C(c1cc(S(=O)(=O)Nc2ccccc2F)c(Cl)cc1Cl)N1CCN(CCO)CC1,–,"inconclusive: 29.1 µM [falling, single point]"
COc1ccccc1NC(=O)Cn1nnc(C(=O)Nc2ccccc2Br)c1N,–,"inconclusive: 2.06 µM [activator, partial curve, poor fit]"

SMILES,"activity change, negative = inhibition",Potency
O=[N+]([O-])c1ccc(NN=Cc2ccccc2)nc1,–,"inconclusive: 3.66 µM [activator, single point]"
Cc1ccc(NC(=O)NNC(=O)c2snnc2C)cc1,inactive: 4.42%,–
CC(=C/c1ccc(C(C)C)cc1)/C=N/NC(=O)Cn1nc(C)cc1C,–,"inconclusive: 25.9 µM [activator, single point]"
NC(=O)c1cccc(-c2cnc(N)c(C(=O)c3cccnc3)n2)c1,–,"inconclusive: 20.6 µM [falling, single point]"
CCCCc1oc2c(c(=O)c1C)C(=O)CC(c1ccccc1)C2 (stereo not drawn),–,"inconclusive: 18.4 µM [falling, partial curve]"
COc1ccc(C(=O)CN2CCN(c3ccc(Cl)cc3)CC2)cc1OC,–,"inconclusive: 32.6 µM [falling, single point]"
COC(=O)c1ccccc1NC(=O)c1cnc2sc(N3CCOCC3)nn2c1=O,–,"inconclusive: 29.1 µM [falling, single point]"
CCC(C)NC(=O)CSc1nc(-c2ccc(F)cc2)cc(C(F)(F)F)n1 (stereo not drawn),inactive: 2.77%,–
COc1ccc(N(CC(=O)NCCSCc2ccc(Cl)cc2)S(C)(=O)=O)cc1Cl,–,"inconclusive: 29.1 µM [falling, single point]"
Cc1ccc(-c2noc(CCCC(=O)NC3CCCC3)n2)cc1,–,"inconclusive: 23.1 µM [falling, single point]"
COC(=O)[C@@]12CCCCN1[C@H](c1ccc(-c3ccc(F)cc3)c(OC)c1)[C@@H]1C(=O)N(C)C(=O)[C@@H]12,–,"inconclusive: 18.4 µM [falling, single point]"
Cc1ccc(NC(=O)N2CCN(C)c3ncccc32)cc1C,inactive: 10.6%,–
CCOC(=O)c1c(NC(NC(C)=O)C(Cl)(Cl)Cl)sc2c1CCCC2 (stereo not drawn),–,"inconclusive: 29.1 µM [falling, single point]"
Cc1ccc(CN2CCNC(=O)C2CC(=O)NCc2cc(C)n(C)n2)cc1 (stereo not drawn),inactive: 7.01%,–
O=C(CN1C(=O)COc2ccc(S(=O)(=O)N3CCCCCC3)cc21)NCCc1ccccc1,inactive: -1.39%,–
COc1cccc(C(=O)NC2CC3CCCC(C2)N3CC(=O)Nc2ccccc2C(F)(F)F)c1 (stereo not drawn),–,"inconclusive: 18.4 µM [falling, single point]"
COc1ccc(CC(=O)Nc2nc3ccccc3s2)cc1S(=O)(=O)N1CCOCC1,–,"inconclusive: 25.9 µM [falling, partial curve, poor fit]"
COc1cc(/C=N/NS(=O)(=O)c2ccc(C)cc2)ccc1OCc1ccc(C(=O)O)cc1,–,"inconclusive: 1.03 µM [activator, full curve]"
CC(=O)c1c(N2CCN(Cc3ccccc3)CC2)[nH]c(-c2ccccc2)nc1=S,inactive: 8.2%,–
S=c1nccc(-c2ccc(Cl)cc2)[nH]1,inactive: 0.8%,–
CCOc1ccc(OCc2ccc(C(=O)N/N=C(\C)c3ccccn3)cc2)cc1,–,"inconclusive: 18.4 µM [falling, partial curve]"
Cc1ccc(Cn2c(SCC(C)C)nc3c2c(=O)n(C)c(=O)n3C)cc1,–,"inconclusive: 29.1 µM [falling, single point]"

# Fetched one by one from the list above, 3 records:
SMILES,"activity change, negative = inhibition",Potency
Cc1ccc(CN2CCNC(=O)C2CC(=O)NCc2cc(C)n(C)n2)cc1 (stereo not drawn),inactive: 7.01%,–
CCC(C)NC(=O)CSc1nc(-c2ccc(F)cc2)cc(C(F)(F)F)n1 (stereo not drawn),inactive: 2.77%,–
CCCCc1oc2c(c(=O)c1C)C(=O)CC(c1ccccc1)C2 (stereo not drawn),–,"inconclusive: 18.4 µM [falling, partial curve]"
